Reference: US10725001B2, “Liquid crystal composition, pH sensing device using the same, and pH sensing device kit using the same” (Tamkang University, priority 2016, dated 2020)

Tests used:
[1] = Optical signal of a single sensing device (5CB liquid crystal composition blended with dopant) in solutions of different pH, observed under a microscope
Method: (§1) The DMOAP-substrate is cut to have a size of 0.5 cm×0.5 cm, on which the frame is positioned. The liquid crystal composition prepared (about 0.25 μl) is drawn with a micropipette and filled in the grid of the frame. A casing having internal space of about 10 mm×25 mm×5 mm is prepared with polydimethylsiloxane. The casing has an inlet and an outlet through which the flowing substance passes. The prepared substrate and the frame filled with the liquid crystal composition are placed in the space of the casing, and two polarizers are arranged and secured at two sides of the casing, to obtain a sensing device. The polarization directions of the two polarizers are perpendicular. The liquid crystal in the liquid crystal composition may be aligned orderly along a direction perpendicular to the two polarizers.
Referring to FIGS. 8(a) to 8(g), 9(a) to 9(g), FIGS. 10(a) to 10(g), and 11(a) to 11(g), sensing devices containing the liquid crystal composition blended with 0.3% of the compound of Formula (I-1), (I-2), (I-3), or (I-4) are positioned in solutions having different pH values respectively. The light transmittance of the sensing devices in the solutions having different pH values are observed under a microscope, to obtain corresponding optical signals. FIGS. 8(a) to 8(g) show optical signals obtained from a sensing device containing the liquid crystal composition blended with 0.3% of the compound of Formula (I-1) positioned in a solution of pH 6.8, pH 7.0, pH 7.2, pH 7.4, pH 7.6, pH 8.0, and pH 8.2 respectively. FIGS. 9(a) to 9(g) show optical signals obtained from a sensing device containing the liquid crystal composition blended with 0.3% of the compound of Formula (I-2) positioned in a solution of pH 6.8, pH 7.0, pH 7.2, pH 7.4, pH 7.6, pH 8.0, and pH 8.2 respectively. FIGS. 10(a) to 10(g) show optical signals obtained from a sensing device containing the liquid crystal composition blended with 0.3% of the compound of Formula (I-3) positioned in a solution of pH 6.8, pH 7.0, pH 7.2, pH 7.4, pH 7.6, pH 8.0, and pH 8.2 respectively. FIGS. 11(a) to 11(g) show optical signals obtained from a sensing device containing the liquid crystal composition blended with 0.3% of the compound of Formula (I-4) positioned in a solution of pH 6.8, pH 7.0, pH 7.2, pH 7.4, pH 7.6, pH 8.0, and pH 8.2 respectively.
Referring to FIGS. 12(a) to 12(f), 13(a) to 13(f), 14(a) to 14(f), and 15(a) to 15(f), sensing devices containing the liquid crystal composition blended with 0.3%, 0.4%, 0.5%, and 0.6% of the compound of Formula (I-1) are positioned in solutions having different pH values respectively. The light transmittance of the sensing devices in the solutions having different pH values are observed under a microscope, to obtain corresponding optical signals. FIGS. 12(a) to 12(f) show optical signals obtained from a sensing device containing the liquid crystal composition blended with 0.3% of the compound of Formula (I-1) positioned in a solution of pH 6.0, pH 6.2, pH 6.4, pH 6.6, pH 6.8 and pH 7.0 respectively. FIGS. 13(a) to 13(f) show optical signals obtained from a sensing device containing the liquid crystal composition blended with 0.4% of the compound of Formula (I-1) positioned in a solution of pH 6.0, pH 6.2, pH 6.4, pH 6.6, pH 6.8 and pH 7.0 respectively. FIGS. 14(a) to 14(f) show optical signals obtained from a sensing device containing the liquid crystal composition blended with 0.5% of the compound of Formula (I-1) positioned in a solution of pH 6.0, pH 6.2, pH 6.4, pH 6.6, pH 6.8 and pH 7.0 respectively. FIGS. 15(a) to 15(f) show optical signals obtained from a sensing device containing the liquid crystal composition blended with 0.6% of the compound of Formula (I-1) positioned in a solution of pH 6.0, pH 6.2, pH 6.4, pH 6.6, pH 6.8 and pH 7.0 respectively.

[2] = Optical signals of four sensing devices positioned at the same time in solutions of different pH, observed under a microscope
Method: as §1
Referring to FIGS. 16(a) to 16(f), four sensing devices containing the liquid crystal composition blended with 0.3% of the compound of Formula (I-1), (I-2), (I-3), or (I-4) (from right to left) are positioned in solutions having different pH values respectively. The light transmittance of the sensing devices in the solutions having different pH values are observed under a microscope, to obtain corresponding optical signals.
Referring to FIGS. 17(a) to 17(g), four sensing devices containing the liquid crystal composition blended with 0.3%, 0.4%, 0.5%, and 0.6% of the compound of Formula (I-1) are positioned in solutions of pH 6.0, pH 6.2, pH 6.4, pH 6.6, pH 6.8, pH 7.0 and pH 7.2 respectively. The light transmittance of the sensing devices in the solutions having different pH values are observed under a microscope, to obtain corresponding optical signals.

[3] = liquid crystal composition blended with 0.3% of the compound, FIGS. 8-11, pH 6.8-8.2
[4] = solution of pH 7.2, 0.3% of the compound, FIG. 16(c)

SMILES: CCCCCCCCCCOc1ccc(-c2ccc(C(=O)O)cc2)cc1 [Formula (I-3)]
- pH of solution at or above which the sensing device produces a dark optical signal [1, 3]: ≥ 7.6

SMILES: CCCCCCCCOc1ccc(-c2ccc(C(=O)O)cc2)cc1 [Formula (I-2)]
- pH of solution at or above which the sensing device produces a dark optical signal [1, 3]: ≥ 7.2
- optical signal of sensing device [2, 4]: dark optical signal

SMILES: CCCCCCc1ccc(-c2ccc(C(=O)O)cc2)cc1 [Formula (I-1)]
- pH of solution at or above which the sensing device produces a dark optical signal ([1]; blended with 0.3% of the compound, FIG. 12, pH 6.0-7.0): ≥ 6.8
- pH of solution at or above which the sensing device produces a dark optical signal ([1]; blended with 0.4% of the compound, FIG. 13, pH 6.0-7.0): ≥ 6.8
- pH of solution at or above which the sensing device produces a dark optical signal ([1]; blended with 0.5% of the compound, FIG. 14, pH 6.0-7.0): ≥ 6.6
- pH of solution at or above which the sensing device produces a dark optical signal ([1]; blended with 0.6% of the compound, FIG. 15, pH 6.0-7.0): ≥ 6.4
- pH of solution at or above which the sensing device produces a dark optical signal [1, 3]: ≥ 7
- optical signal of sensing device ([2]; solution of pH 6.2, 0.6% of the compound, FIG. 17(b)): dark optical signal
- optical signal of sensing device ([2]; solution of pH 6.4, 0.5% of the compound, FIG. 17(c)): dark optical signal
- optical signal of sensing device ([2]; solution of pH 6.4, 0.6% of the compound, FIG. 17(c)): dark optical signal
- optical signal of sensing device ([2]; solution of pH 6.6, 0.5% of the compound, FIG. 17(d)): dark optical signal
- optical signal of sensing device ([2]; solution of pH 6.6, 0.6% of the compound, FIG. 17(d)): dark optical signal
- optical signal of sensing device ([2]; solution of pH 6.8, 0.3% of the compound, FIG. 17(e)): bright optical signal
- optical signal of sensing device ([2]; solution of pH 7.0, 0.3% of the compound, FIG. 16(b)): dark optical signal
- optical signal of sensing device ([2]; solution of pH 7.0, 0.3% of the compound, FIG. 17(f)): bright optical signal
- optical signal of sensing device [2, 4]: dark optical signal

SMILES: CCCCCCCCCCCCOc1ccc(-c2ccc(C(=O)O)cc2)cc1 [Formula (I-4)]
- pH of solution at or above which the sensing device produces a dark optical signal [1, 3]: ≥ 8.2
- optical signal of sensing device ([2]; solution of pH 7.4, 0.3% of the compound, FIG. 16(d)): bright optical signal
- optical signal of sensing device ([2]; solution of pH 7.6, 0.3% of the compound, FIG. 16(e)): bright optical signal
